Measurements as given in patent publication US12491182B2, “Polymorphs of triazole antifungal compound PC945” (Pulmocide Limited, priority 2019, dated 2025).
At least one structure is not confirmed: it was looked up by name or label, or the drawing left a doubt.

Test: Cross-seeding experiments of Forms 1 and 2 at 5, 25 and 50 °C, XRPD
Format: physicochemical
Conditions: 96 hr
Excerpt: X-Ray powder diffraction patterns were collected on a PANalytical diffractometer using Cu Kα radiation (45 kV, 40 mA), θ-θ goniometer, focusing mirror, divergence slit (½″), soller slits at both incident and divergent beam (4 mm) and a PIXcel detector. The software used for data collection was X′Pert Data Collector, version 2.2f and the data was presented using X′Pert Data Viewer, version 1.2d. XRPD patterns were acquired under ambient conditions via a transmission foil sample stage (polyimide—Kapton, 12.7 μm thickness film) under ambient conditions using a PANalytical X′Pert PRO. The data collection range was 2.994-35°2θ with a continuous scan speed of 0.202 s^−1.
A mixture of Forms 1 and 2 (50% w/w) was prepared and a sample of the mixture (20 mg) was then suspended in a solvent system (50 vol, 1.0 mL) and shaken at different temperatures for 96 hr. The solids were filtered, air dried and analysed by XRPD. The results obtained (Table 8) reveal that, in all but one of the systems investigated (Entries 10-12), the mixture of polymorphic forms had turned over into Form 2 when maintained at both RT and 50° C. The transformation in propyl acetate was seen to be especially facile as Form 2 was also isolated from the suspension which had been maintained at 5° C. (Entry 1).

Measured: Polymorphic Form by XRPD

Cc1cc(N2CCN(c3ccc(C(=O)Nc4ccc(F)cc4)cc3)CC2)ccc1OC[C@@H]1CO[C@@](Cn2cncn2)(c2ccc(F)cc2F)C1 [Forms 1 and 2]
1 and 2: IPA: Water (5%), 5 °C | IPA: Water (5%), 25 °C | IPA: Water (5%), 50 °C | TBME, 5 °C | Toluene, 5 °C
